# Percent effect of library compounds

Protein sequences, listed by entry. Tags and fused reporters are not part of them. Residues count along the entry.
UniProt Q4DA54, 1-478: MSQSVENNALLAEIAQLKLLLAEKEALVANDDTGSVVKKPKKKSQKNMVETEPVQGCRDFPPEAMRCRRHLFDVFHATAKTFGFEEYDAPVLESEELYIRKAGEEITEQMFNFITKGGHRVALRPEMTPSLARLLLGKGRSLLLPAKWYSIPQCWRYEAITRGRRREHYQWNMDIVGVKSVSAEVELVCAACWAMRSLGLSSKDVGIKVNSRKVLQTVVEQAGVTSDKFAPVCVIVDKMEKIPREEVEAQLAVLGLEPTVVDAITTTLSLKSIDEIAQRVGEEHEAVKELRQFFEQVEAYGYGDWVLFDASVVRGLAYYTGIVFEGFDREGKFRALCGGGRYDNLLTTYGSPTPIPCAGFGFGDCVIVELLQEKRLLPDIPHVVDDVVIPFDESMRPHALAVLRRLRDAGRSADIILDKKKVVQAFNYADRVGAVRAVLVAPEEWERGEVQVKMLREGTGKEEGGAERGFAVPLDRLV
UniProt P9WPC5, whole entry: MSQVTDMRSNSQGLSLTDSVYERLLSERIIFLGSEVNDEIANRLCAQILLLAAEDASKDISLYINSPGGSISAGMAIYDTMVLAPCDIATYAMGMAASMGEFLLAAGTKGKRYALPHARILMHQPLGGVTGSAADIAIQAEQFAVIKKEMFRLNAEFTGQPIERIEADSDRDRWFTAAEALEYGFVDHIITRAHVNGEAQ
UniProt P9WPC3, whole entry partner: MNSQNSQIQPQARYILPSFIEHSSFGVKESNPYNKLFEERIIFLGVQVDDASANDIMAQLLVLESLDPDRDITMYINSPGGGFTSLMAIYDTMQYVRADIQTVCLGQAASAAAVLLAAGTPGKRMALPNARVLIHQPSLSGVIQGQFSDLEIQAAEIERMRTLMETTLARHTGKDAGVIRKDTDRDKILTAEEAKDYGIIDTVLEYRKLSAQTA

Data taken from ChEMBL document CHEMBL3988442, “University of Dundee, Small-Polar-MMV Screening Library” (2021).

The filed quantity is “Percent Effect” (%).
The record does not define 0% and 100%; most values in the screen are far below 50% and negative numbers occur (in some assays of this library far below -100).
Compounds were drawn at random from those tested, without regard to their results.

TcHisRS: 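Enzyme assay of histidyl-tRNA synthetase; the read-out is not stated. Target: Histidine-tRNA ligase, Trypanosoma cruzi CL Brener (UniProt Q4DA54). Tested at 30 µM. The record gives no direction; compounds that gave an IC50 in retests scored well above the rest, so higher reads as stronger inhibition. Size under these conditions: about 69,000 compounds, about 31 of them at 50% or above in at least one test.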
ClpP1P2: 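Protease assay of ClpP1P2, read by the AMC dye that it sets free. Target: ClpP1P2, Mycobacterium tuberculosis (UniProt P9WPC5 and UniProt P9WPC3). Tested at 50 µM. Higher reads as stronger inhibition, judged from the few compounds that gave an IC50. Most other retested compounds had strongly negative values. Size under these conditions: about 69,000 compounds, about 10 of them at 50% or above in at least one test.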

* O=C(COCC(F)(F)F)NS(=O)(=O)c1ccc2c(c1)OCCCO2 | TcHisRS: 0.578%; ClpP1P2: -11.04%
* Cc1cnccc1N1CCN(C(=O)CCCN2CCCCC2)CC1 | TcHisRS: 3.061%; ClpP1P2: -20.44%
* Cc1ccccc1C(NC(=O)CNC(=O)c1ccoc1C)C(C)C (stereo not shown) | TcHisRS: -2.762%; ClpP1P2: 1.423%
* CCc1noc(CN(C)C(=O)c2ccnc(OC3CCC3)c2)n1 | TcHisRS: 0.9852%; ClpP1P2: -16.61%
* CN(C)C[C@H]1C[C@@H]2CN(C(=O)c3ccco3)C[C@@H]2O1 | TcHisRS: -2.454%; ClpP1P2: -2.324%
* CN(C)C(=O)CCS(=O)(=O)Cc1cc(Cl)c2c(c1)OCCO2 | TcHisRS: 2.89%; ClpP1P2: 15.45%
* NS(=O)(=O)CCN1CCN(c2ccccc2O)CC1 | TcHisRS: 6.383%; ClpP1P2: 5.048%
* O=C1NC2(CCN(CC(=O)N3CCOCC3)CC2)Nc2ccccc21 | TcHisRS: 9.091%; ClpP1P2: -88.17%
* CN(C)c1ncc(CN2CCC(O)(c3ccccc3F)CC2)cn1 | TcHisRS: 6.061%; ClpP1P2: -1.189%
* CCC(C)NC(=O)CS(=O)(=O)Cc1cc(Cl)ccc1OC (stereo not shown) | TcHisRS: -1.961%; ClpP1P2: 14.86%
* COCC1c2c(cnn2C)CCN1Cc1ccc(C)o1 (stereo not shown) | TcHisRS: 0%; ClpP1P2: 13.44%
* O=C(CCn1cc(Cl)cn1)N1CCCC(O)(CO)CC1 (stereo not shown) | TcHisRS: -2.646%; ClpP1P2: -6.874%
* CCn1cc(CN(C)S(=O)(=O)c2cc(Cl)ccc2Cl)cn1 | TcHisRS: 3.825%; ClpP1P2: 13.95%
* CC(C)n1c(=O)c2ccccc2n(CCN2CCCCC2)c1=O | TcHisRS: 4.95%; ClpP1P2: -0.556%
* CN(CCO)Cc1nnc(C2CCN(C(=O)c3ccccn3)CC2)n1C | TcHisRS: 7.821%; ClpP1P2: -2.961%
* Cc1c(Br)cccc1C(=O)NCC1CCCNC1 (stereo not shown) | TcHisRS: 3.448%; ClpP1P2: -6.601%
* CCN(C(=O)NCc1cccnc1N(C)C)C(C)c1cccnc1 (stereo not shown) | TcHisRS: 2.299%; ClpP1P2: -3.41%
* CNC(=O)c1cc(C)nc(C2(C)CCCN2c2cc(C)ncn2)n1 (stereo not shown) | TcHisRS: 8.333%; ClpP1P2: -6.207%
* CCS(=O)(=O)c1ncc(CN2CCCC2)n1CCc1ccccc1 | TcHisRS: -0.578%; ClpP1P2: -3.055%
* O=C(Nc1cccc(CN2CCOC2=O)c1)N1CCOCC1 | TcHisRS: 5.691%; ClpP1P2: -7.245%
* CCN1CC2(CC1=O)CN(C(C)=O)CCN(C(=O)NC(C)C)C2 (stereo not shown) | TcHisRS: 10.61%; ClpP1P2: 2.323%
* CC1(C)Cc2ccc(C(=O)NC3CCOCC3)c(O)c2O1 | TcHisRS: 10.1%; ClpP1P2: -6.993%
* CCn1cc(S(=O)(=O)N2CCCCCC2c2cc(C)on2)cn1 (stereo not shown) | TcHisRS: 6.513%; ClpP1P2: -32.08%
* CCN(C(=O)NCc1ccccc1OC(F)F)C(C)c1cccnc1 (stereo not shown) | TcHisRS: 3.448%; ClpP1P2: -19.24%
* CCn1cnnc1C1CCN(C(=O)c2ccc(Cl)cc2OC)CC1 | TcHisRS: 4.023%; ClpP1P2: 8.833%
* Cc1noc(C)c1CC(=O)N1CCC(c2ccn3nccc3n2)CC1 | TcHisRS: -2.571%; ClpP1P2: -16.4%
* CN(C)CC(=O)N1CCC2(CC1)CN(Cc1cccnc1)C(=O)CO2 | TcHisRS: 1.442%; ClpP1P2: -3.446%
* Cc1nc(COC[C@@]23CCC[C@@H]2CN(CC2CCOCC2)C3)cs1 | TcHisRS: 1.149%; ClpP1P2: 2.292%
* Cc1nc(C)c(CC(=O)N2CCCN(CC3CC3)C(C(C)C)C2)c(=O)[nH]1 (stereo not shown) | TcHisRS: 0.5291%; ClpP1P2: 10.09%
* CC(C)N(C)[C@@H]1CCN(Cc2nccs2)[C@H]1Cc1ccncc1 | TcHisRS: 4.908%; ClpP1P2: -10.81%
* CN(Cc1cc(C(C)(C)C)n[nH]1)C(=O)CCC(=O)NC1CCCC1 | TcHisRS: -1.754%; ClpP1P2: -14.21%
* Fc1cnc(N2CCCn3c(nnc3Cn3cccc3)C2)nc1 | TcHisRS: 22.58%; ClpP1P2: 5.402%
* CCOC(=O)C1=NOC(Cc2cc(OC)c3c(c2)OCO3)C1 (stereo not shown) | TcHisRS: 0%; ClpP1P2: -9.494%
* Cc1ccc(CNC(=O)Nc2nnc(C(C)C)s2)n1C | TcHisRS: 5.319%; ClpP1P2: -3.508%
* CCOc1ccccc1C(=O)N1CCCC(O)(CN(C)C)C1 (stereo not shown) | TcHisRS: 4.167%; ClpP1P2: 6.872%
* O=C(c1ccno1)N1CC[C@@H]2O[C@H](COCCN3CCCC3)CC[C@@H]21 | TcHisRS: 10.92%; ClpP1P2: 2.097%
* CCCN1CCC2(Cc3ccccc3NC2=O)C1 (stereo not shown) | TcHisRS: -1.149%; ClpP1P2: 4.223%
* CCCn1cc(C(=O)N2CCCC(Cc3nccs3)C2)cn1 (stereo not shown) | TcHisRS: 2.26%; ClpP1P2: 3.356%
* NS(=O)(=O)N1CCC(CSc2ccccc2)C1 (stereo not shown) | TcHisRS: 3.896%; ClpP1P2: -4.932%
* Cc1oc(C)c(C(=O)N2CCCN(c3nccs3)CC2)c1C | TcHisRS: 0%; ClpP1P2: -26.55%
* CCc1nc(CCNC(=O)Nc2ccc(C(=O)NC)cc2C)cs1 | TcHisRS: 8.714%; ClpP1P2: 3.369%
* CN(C)Cc1nnc(C2CCN(c3nccc(N)n3)CC2)n1C1CC1 | TcHisRS: 4.878%; ClpP1P2: -5.468%

Once more, the final 4:

{"compound": "NS(=O)(=O)N1CCC(CSc2ccccc2)C1", "stereo": "stereo not shown", "TcHisRS": 3.896, "ClpP1P2": -4.932}
{"compound": "Cc1oc(C)c(C(=O)N2CCCN(c3nccs3)CC2)c1C", "TcHisRS": 0, "ClpP1P2": -26.55}
{"compound": "CCc1nc(CCNC(=O)Nc2ccc(C(=O)NC)cc2C)cs1", "TcHisRS": 8.714, "ClpP1P2": 3.369}
{"compound": "CN(C)Cc1nnc(C2CCN(c3nccc(N)n3)CC2)n1C1CC1", "TcHisRS": 4.878, "ClpP1P2": -5.468}